Measurements published in patent publication EP1348714B1 (COUNCIL OF SCIENTIFIC AND INDUSTRIAL RESEARCH, priority 2002, dated 2003).
Some peptides are written in HELM: one residue between dots, names in brackets for other building blocks, links after the first $.

What was measured:
peptide synthesis = details: late stage modification step, diacetate
[1] = general procedure: Fmoc solid-phase peptide synthesis; 4-alkoxybenzylalcohol resin; Rink amide resin; DIC, HOBt, DCC, BOP or PyBOP; DCC/HOBt in solution phase; details: late stage modification step, diacetate

Substance: PEPTIDE1{A.G.G.D.[Sar].K}$$$$V2.0
- step yield (peptide synthesis): 65%
- final HPLC purity [1]: 99%
